# In PubChem BioAssay AID540276 (National Center for Advancing Translational Sciences (NCATS), 2011):
# The whole screen tested about 300,000 compounds, of which about 5,400 (1.8%) were called active. The inconclusive results got no clear call from the source; some entries with a clear call stand among them for comparison. The call rests on the fitted dose curve; tested in HEK293 cells. Where the call is inconclusive, the potency comes from a doubtful curve fit.
# Assay: qHTS for inhibitors of binding or entry into cells for Marburg Virus
# Settings: Marburg virus pseudotyped entry inhibition, cell reporter; activity change, negative = inhibition: at 37.8 µM (top of the series) unless noted
# On the % scale 0 is the no-effect control and ±100 the full control effect; potency means the concentration at half of the fitted maximal effect.
Structure (SMILES),Potency,"activity change, negative = inhibition"
CN(C)c1ccc(CNC(=O)C2CCN(S(=O)(=O)c3ccc4c(c3)CCCC(=O)N4)CC2)cc1,inactive,
CC(C)CNC(=O)COC(=O)C1c2ccccc2Oc2ccccc21,"inconclusive: 1.26 µM [activator, full curve, poor fit]",
COc1cccc(Cn2cnc3c(NS(=O)(=O)c4ccc(Cl)cc4Cl)c(C)c(C)cc32)c1,"inconclusive: 6.51 µM [inhibitor, full curve, poor fit]",
N#CC(Cc1ccc(O)c(O)c1)C(=O)N1CCc2ccccc21 (configuration not stated),"inconclusive: 0.631 µM [inhibitor, full curve, poor fit]",
CN(C)S(=O)(=O)c1ccc(C(=O)N2CCN(C(=O)C3CCCO3)CC2)cc1 (configuration not stated),"inconclusive: 5.62 µM [inhibitor, single point]",
CCOC(=O)/C(=C\c1cn(C)c2ccccc12)[N+](=O)[O-],inactive,
CCOc1ccc(NS(=O)(=O)c2ccc3ncsc3c2)cc1,inactive,
COc1ccccc1N1CCN(c2nc3ccccc3n3cnnc23)CC1,inactive,
O=c1[nH]n2c(=O)c3c([nH]c2c1N=Nc1cccc(Cl)c1)CCC3,"inconclusive: 11.2 µM [activator, single point]",
CCOc1ccc(CCNC(=O)COC(=O)CNC(=O)c2ccc(Br)o2)cc1OCC,inactive,
C/C(=N\Nc1cccc([N+](=O)[O-])c1)c1ccccc1O,"inconclusive: 7.08 µM [inhibitor, partial curve, poor fit]",
CCOc1ccc(NC(=NCc2ccc3c(c2)OCO3)SC2CC(=O)N(c3ccc(C(=O)O)cc3)C2=O)cc1 (configuration not stated),inactive,
Cc1cc2oc(=O)cc(CN3CCN(S(=O)(=O)c4cccs4)CC3)c2cc1C,active: 14.1 µM,
CCOC(=O)c1nnc(-c2ccc(C)cc2)nc1Sc1cccc(Cl)c1,"inconclusive: 6.31 µM [activator, full curve, poor fit]",
CC1(C)Cc2c(ccc3ccccc23)/C(=C/C(=O)N2CCCCC2)N1,active: 11.2 µM,
O=S(=O)(/C=C/c1ccccc1)NC1CCCCCCC1,inactive,
Cc1cc(N2CCCCC2)c(F)cc1[N+](=O)[O-],inactive,
Cc1cc(C)cc(N=Cc2ccc([N+](=O)[O-])s2)c1,"inconclusive: 35.5 µM [inhibitor, single point]",
O=C(/C=C\c1ccco1)c1ccc(NC(=O)c2ccco2)cc1,"inconclusive: 1 µM [activator, full curve, poor fit]",
CC1CN(C(=O)c2cc(S(=O)(=O)N3CCN(c4ccccc4)CC3)ccc2Cl)CC(C)O1 (configuration not stated),"inconclusive: 3.98 µM [inhibitor, partial curve]",
CCSc1nnc(NC(=O)c2c(-c3ccccc3Cl)noc2C)s1,"inconclusive: 1.12 µM [inhibitor, partial curve, poor fit]",
c1ccc(N2CCN(c3nc4ccccc4n4nnnc34)CC2)cc1,inactive,
C/C(CC(=O)Nc1cc(C)cc(C)c1)=N\NC(=O)c1ccccn1,"inconclusive: 6.51 µM [activator, single point]",
OC(COCc1cccs1)CN1CCN(c2ccccc2Cl)CC1 (configuration not stated),"inconclusive: 15.8 µM [inhibitor, single point]",

Structure (SMILES),Potency,"activity change, negative = inhibition"
Nc1n[nH]c(N)c1N=Nc1ccccc1F,inactive,
Cc1ccc(NC(=O)c2nnn(Cc3ccccc3)c2N)cc1C,"inconclusive: 10 µM [activator, partial curve, poor fit]",
Cc1ccc(NC(=O)Cn2c(O)c(N=NC(=O)c3cc4ccccc4cc3O)c3ccccc32)cc1,"inconclusive: 7.94 µM [inhibitor, partial curve, poor fit]",
COc1ccc(NC(=O)c2cc(-c3ccccc3Cl)on2)cc1OC,inactive,
COc1ccc(NC(=O)c2ccco2)cc1NC(=O)COc1cccc(C)c1C,"inconclusive: 3.16 µM [activator, single point]",
COc1ccc(C)cc1NC(=O)COc1cc(=O)n(C)c2ccccc12,"inconclusive: 14.1 µM [activator, single point]",
C[N+](C)(C)CCCCCCCCCC[N+](C)(C)C,inactive,
c1ccc2nc(N3CCNCC3)ccc2c1,"inconclusive: 10 µM [inhibitor, partial curve]",
Cc1nn(Cc2cccc(C(=O)Nc3ccn(Cc4c(F)c(F)cc(F)c4F)n3)c2)c(C)c1[N+](=O)[O-],"inconclusive: 20.6 µM [inhibitor, partial curve]",
Cc1nc2ccc(NC(=O)c3ccc(Cl)c(NC(=O)c4cccs4)c3)cc2s1,"inconclusive: 35.5 µM [inhibitor, single point]",
CC(C)c1nnc(NC(=O)CCC(=O)NCC2CCCO2)s1 (configuration not stated),"inconclusive: 35.5 µM [activator, single point]",
O=C(NCC(=O)N(c1cccnc1)C(C(=O)NC1CCCC1)c1ccccc1)c1ccco1 (configuration not stated),"inconclusive: 5.62 µM [inhibitor, single point]",
CC(C)(C)OC(=O)N/N=C/c1ccc(Br)cc1,inactive,
Cn1c(SCC(=O)NCc2ccc(F)cc2)ncc(C(=O)Nc2ccccc2)c1=O,"inconclusive: 28.2 µM [inhibitor, single point]",
CNc1nc(Cl)nc(Nc2ccccc2)n1,"inconclusive: 6.51 µM [activator, single point]",
CN(C)c1ccc(CN2CCCC(O)C2)cc1 (configuration not stated),"inconclusive: 0.82 µM [inhibitor, partial curve, poor fit]",
O=C(NC1=NCCS1)c1sc2ccccc2c1Cl,"inconclusive: 0.1 µM [activator, full curve, poor fit]",
COC(=O)c1ccc2c(=O)n(C3CCCCC3)c(SCC#N)nc2c1,active: 0.0146 µM,
Cc1ccc(NC(=O)CN(C)S(=O)(=O)c2ccc3c(c2)n(C)c(=O)c(=O)n3C)cc1F,inactive,
Cc1cccc(NC(=O)CSc2nnc(-c3ccncc3)n2CC2CCCO2)c1 (configuration not stated),"inconclusive: 3.16 µM [inhibitor, partial curve, poor fit]",
Fc1ccc2[nH]c3c(NCc4ccccc4)ncnc3c2c1,"inconclusive: 10 µM [inhibitor, partial curve, poor fit]",
Cc1ccc(NC(=O)C(=O)NCC2CCCN2S(=O)(=O)c2cccs2)c(C)c1 (configuration not stated),"inconclusive: 3.16 µM [activator, single point]",
CCOC(=O)c1nc(C)n(-c2ccc([N+](=O)[O-])cc2)n1,inactive,
O=C(Nc1ccc2c(c1)CCC2)c1ccc(F)cc1,active: 11.2 µM,

# Individual results from the entries so far.
# For Potency, COC(=O)c1ccc2c(=O)n(C3CCCCC3)c(SCC#N)nc2c1 reads active: 0.0146 µM
# For Potency, COc1ccccc1N1CCN(c2nc3ccccc3n3cnnc23)CC1 reads inactive
# For Potency, CCSc1nnc(NC(=O)c2c(-c3ccccc3Cl)noc2C)s1 reads inconclusive: 1.12 µM [inhibitor, partial curve, poor fit]
# For Potency, O=S(=O)(/C=C/c1ccccc1)NC1CCCCCCC1 reads inactive
# For Potency, CC1(C)Cc2c(ccc3ccccc23)/C(=C/C(=O)N2CCCCC2)N1 reads active: 11.2 µM

# Next structures:

Structure (SMILES),Potency,"activity change, negative = inhibition"
Cc1cc(C)c(C(=O)COC(=O)c2cccnc2Cl)c(C)c1,"inconclusive: 35.5 µM [activator, single point]",
CC(=NNc1ccc2ccccc2n1)c1ccccc1O,"inconclusive: 10 µM [inhibitor, partial curve, poor fit]",
O=C(CSc1ccccc1)Nc1cccc(S(=O)(=O)N2CCCC2)c1,inactive,
CC(=O)Nc1ccc(C(=O)OC2CCOC2=O)cc1 (configuration not stated),inactive,
CC(C)C(=O)c1cn(Cc2ccccc2C#N)c2ccccc12,"inconclusive: 7.08 µM [inhibitor, partial curve, poor fit]",
COc1ccc(NC(=O)CNC(=O)c2ccc([N+](=O)[O-])cc2)cc1,inactive,
Cc1cccc(C(=O)Oc2ccccc2/C=N/NC(=O)c2ccc(NC(=O)C(C)(C)C)cc2)c1,"inconclusive: 0.112 µM [activator, full curve, poor fit]",
COc1ccc(S(=O)(=O)N2CCN(C(=O)c3ccc(C)o3)CC2)cc1,"inconclusive: 22.4 µM [inhibitor, single point]",
O=C1CC(c2cccc(Cl)c2)Cc2nc(N3CCOCC3)ncc21 (configuration not stated),"inconclusive: 17.8 µM [inhibitor, single point]",
Cc1cc(NC(=O)CSc2nnc(-c3ccccc3C)n2C)no1,inactive,
NC(=O)COC(=O)CC(c1ccccc1)c1ccccc1,inactive,
Cc1ccc(/C=N/N2C(=S)SC(C)(C)C2N(O)C(=O)Nc2ccc([N+](=O)[O-])cc2)cc1 (configuration not stated),"inconclusive: 11.2 µM [inhibitor, partial curve, poor fit]",
O=C(Nc1cccnc1Cl)c1cc(-c2cccc(O)c2)on1,"inconclusive: 10 µM [activator, partial curve, poor fit]",
CN(C)C(=O)Oc1ccc(OC(=O)N(C)C)cc1,inactive,
CN(C)C=NC(=O)c1cc(C(=O)c2ccc(F)cc2)c[nH]1,inactive,
CCn1c(C(C)NS(=O)(=O)c2ccc(Cl)cc2)n[nH]c1=S (configuration not stated),"inconclusive: 35.5 µM [inhibitor, single point]",
COc1cc(/C=N\Nc2nc3ccccc3[nH]2)cc(OC)c1OC,active: 12.6 µM,
CCOC(=O)C1CCCN(C(=S)Nc2cc(C)cc(C)c2)C1 (configuration not stated),"inconclusive: 1.03 µM [inhibitor, full curve, poor fit]",
O=C(Cn1nnc(-c2ccccc2)n1)N1CCCCC1,inactive,
O=C(CCC(=O)N1CCN(S(=O)(=O)c2ccccc2)CC1)c1cccs1,"inconclusive: 29.1 µM [activator, single point]",
Cc1cn2c(=O)cc(COc3cccc(NC(=O)c4ccc(C(C)(C)C)cc4)c3)nc2s1,,inconclusive: 15.5% [activator] [at 46.1 µM]
CCCCNC(=S)N/N=C/c1ccc(C#N)cc1,"inconclusive: 0.562 µM [inhibitor, full curve, poor fit]",
Cc1cc(-c2ccccc2)n(-c2ccc(C(=O)NC(C)C)cc2)n1,"inconclusive: 8.91 µM [activator, partial curve]",
COC(=O)Nc1ccc2c(c1)N(C(=O)CCN1CCN3CCCC3C1)c1ccccc1S2 (configuration not stated),"inconclusive: 29.1 µM [inhibitor, single point]",
